# Data from PubChem BioAssay AID504467 (National Center for Advancing Translational Sciences (NCATS), 2011).
# Where “and” joins values, the source holds several entries; their conditions need not be identical. Equal values may be shown once. About 7,700 (2.3%) of roughly 330,000 compounds were called active. The inconclusive results got no clear call from the source; some entries with a clear call stand among them for comparison. Calls come from the whole dose curve; as a rule, active = well fitted inhibition curve with a large enough effect; inconclusive = small, poorly fitted or top-dose-only effect, or effect the other way; inactive = flat fitted curve, though single readings scatter. Where the call is inconclusive, the potency comes from a doubtful curve fit.
# Test: qHTS screen for small molecules that inhibit ELG1-dependent DNA repair in human embryonic kidney (HEK293T) cells expressing luciferase-tagged ELG1; note: nearly all actives have a fitted effect of over 55% in size
# Details: HEK293T ELG1-luciferase reporter, luminescence, 16 h, DNA damage induced by 5-fluorouridine; activity change, negative = inhibition: at 46.1 µM (top of the series)
# In short: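 In this reporter screen, reduction of luminescence relative to DMSO vehicle indicated activity. Compounds and 5-fluorouridine were added together to 2,000 cells per well, incubated for 16 hr at 37 °C, then developed with ONE-Glo.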
# % is set by controls: 0 for no effect and ±100 for the full control effect; potency is the fitted concentration of half-maximal effect.
SMILES,Potency,"activity change, negative = inhibition"
CC(C)OC(=O)CSc1nc2cc3c(cc2cc1C#N)OCO3,"inconclusive: 9.2 µM [activator, partial curve]",
O=C(Nc1ccccc1F)N1CCc2ccccc2C1,"inconclusive: 18.3 µM [activator, partial curve]",
c1ccc(C2CSc3ccccc3N2)cc1 (stereo not given),"inconclusive: 13 µM [activator, partial curve]",
N#CC1=C(Nc2ccccc2Cl)SC(c2ccccc2O)NC1=O (stereo not given),"inconclusive: 3.66 µM [inhibitor, single point]",
CC1(C)Cc2c(sc3c2C2=NCCN2C=N3)CS1,,inactive: -16.9%
COc1ccc(-c2c(-c3cc(OC)cc(OC)c3)n(C)c3ccc(-c4cnc(OC)nc4)cc23)cc1,"inconclusive: 6.51 µM [inhibitor, single point]",
Cc1[nH]c2c(Br)cccc2c1[C@H]1[C@@H](CC#N)C1(C)C,"inconclusive: 0.58 µM [activator, partial curve, poor fit]",
COc1cc(C(=S)N2CCOCC2)ccc1OC(=O)c1ccccc1C,"inconclusive: 11.6 µM [inhibitor, partial curve, poor fit]",
COc1cc(C(=O)Nc2c(C(=O)N3CCOCC3)oc3ccccc23)cc(OC)c1OC,"inconclusive: 9.2 µM [inhibitor, partial curve]",
COc1ccc(NC2=Nc3ccccc3CC2)cc1,"inconclusive: 6.51 µM [activator, partial curve]",
CCOC(=O)c1c(C)[nH]c(C)c1C(=O)CSc1nc(N)cc(=O)[nH]1,"inconclusive: 32.6 µM [activator, partial curve, poor fit]",
CCOC(=O)C1CCN(C(=O)c2ccccc2NC(=O)c2ccc(Cl)cc2)CC1,,inactive: -15.1%
COc1ccc(F)cc1S(=O)(=O)Nc1ccc(C)cc1,,inactive: 8.52%
CCOc1ncccc1C(=O)OCc1ccc(C(=O)OC)cc1,"inconclusive: 20.6 µM [activator, single point]",
COc1cccc(CN(C)C(=O)CCc2nnc(-c3ccsc3)o2)c1,"inconclusive: 23.1 µM [inhibitor, single point]",
CCOC(=O)c1c(C)[nH]c(C)c1C(=O)COC(=O)/C=C/c1cccc(C(F)(F)F)c1,"inconclusive: 32.6 µM [inhibitor, single point]",
O=C(O)CC(C(=O)Nc1ccc(F)cc1)C1CCCO1 (stereo not given),,inactive: 5.88%
CCCCn1c(SCc2cccc([N+](=O)[O-])c2)nc2ccsc2c1=O,"inconclusive: 20.6 µM [inhibitor, single point]",
CCOC(=O)C1(C)/C(=N/Nc2ccccc2OC)C(=O)C(=O)N1c1ccccc1 (stereo not given),,inactive: -12.2%
Cc1sc2ncnc(NCC(C)(C)N3CCOCC3)c2c1C,"inconclusive: 2.31 µM [inhibitor, partial curve, poor fit]",
Cn1nc(-c2ccccc2)cc1NC(=O)Nc1ccccc1F,"inconclusive: 10.3 µM [activator, partial curve, poor fit]",
O=C(O)CCC(=O)N1N=C(c2ccc(Br)cc2)CC1c1ccc(Br)cc1 (stereo not given),,inactive: -2.92%
Cc1cc(N2CCN(c3ccc(F)cc3)CC2)nc2cc(O)ccc12,,inactive: -0.699%
CCN(CC)CCCNC(=O)c1c(O)c2cc(F)cc3c2n(c1=O)C(C)CC3 (stereo not given),,inactive: 14.1%

# Five entries from above, tab-delimited:
SMILES	Potency	activity change, negative = inhibition
N#CC1=C(Nc2ccccc2Cl)SC(c2ccccc2O)NC1=O (stereo not given)	inconclusive: 3.66 µM [inhibitor, single point]	
CC1(C)Cc2c(sc3c2C2=NCCN2C=N3)CS1		inactive: -16.9%
COc1ccc(-c2c(-c3cc(OC)cc(OC)c3)n(C)c3ccc(-c4cnc(OC)nc4)cc23)cc1	inconclusive: 6.51 µM [inhibitor, single point]	
Cc1[nH]c2c(Br)cccc2c1[C@H]1[C@@H](CC#N)C1(C)C	inconclusive: 0.58 µM [activator, partial curve, poor fit]	
COc1cc(C(=S)N2CCOCC2)ccc1OC(=O)c1ccccc1C	inconclusive: 11.6 µM [inhibitor, partial curve, poor fit]	

# (further entries)

SMILES,Potency,"activity change, negative = inhibition"
O=C(NCc1ccccc1)c1ccc(N2CCC3(CC2)CC(c2ccc(Cl)cc2)=NO3)c([N+](=O)[O-])c1,"inconclusive: 4.61 µM [inhibitor, partial curve, poor fit]",
Cn1nc(CSc2ccccc2)c(C=O)c1Cl,"inconclusive: 18.3 µM [activator, partial curve]",
Cc1nc(SCC(=O)NC2(C#N)CCCC2)n(CC(C)C)c1C,,inactive: -2.82%
COc1cccc(C(=O)Nc2ccc(C3CC3(Cl)Cl)cc2)c1 (stereo not given),"inconclusive: 3.66 µM [activator, single point]",
NC(=O)C1CN(C(=O)c2nn(Cc3ccccc3)c(=O)c3ccccc23)c2ccccc2O1 (stereo not given),,inactive: 7.51%
COc1cccc(C(=O)Nc2cccc(C(C)=O)c2)c1,"inconclusive: 20.6 µM [activator, partial curve]",
CCCCNC(=O)CSc1nnc(-c2cccc(S(=O)(=O)N3CCOCC3)c2)o1,,inactive: 1.92%
COc1cc2c(cc1OC)C(Nn1cnnc1)=NC1(CCCC1)C2,"inconclusive: 20.6 µM [activator, single point]",
Cc1ccc(S(=O)(=O)N2CCN(C(=O)CN3C(=O)c4ccccc4C3=O)CC2)c(C)c1,,inactive: 12.4%
COc1ccc(-c2oc3ccccc3c2C#Cc2cncn2C)cc1,"inconclusive: 5.17 µM [inhibitor, full curve]",
COc1cc(NC(=O)c2cc(-c3cccc(O)c3)on2)cc(OC)c1OC,"inconclusive: 18.4 µM [inhibitor, partial curve]",
CC(=O)N1c2ccc(S(=O)(=O)N3CCC(C(=O)N4CCCC(C)C4)CC3)cc2CC1C (stereo not given),,inactive: -25%
C/C=C/c1ccc(OCC(=O)OCc2csc(Nc3ccc(C)cc3)n2)c(OC)c1,"inconclusive: 20.6 µM [activator, partial curve]",
COc1cc(/C=N/Nc2ccc(F)cc2F)cc(OC)c1OC,,inactive: -27.3%
C#Cc1cccc(NC(=O)CSc2nnc(-c3ccc(C(F)(F)F)cn3)o2)c1,"inconclusive: 16.4 µM [activator, partial curve]",
Cc1cccc(-c2nc(NCCCN(C)C)c3ccccc3n2)c1,,inactive: 17.6%
CSc1nc(Oc2ccc(F)cc2)c2ccccc2n1,,inactive: -0.191%
O=C(Nc1ccc(Cl)c(S(=O)(=O)N2CCOCC2)c1)c1cc2ccccc2oc1=O,"inconclusive: 2.31 µM [activator, partial curve]",
O=C(c1ncn(Cc2ccccc2)c1C(=O)N1CCN(c2ccccc2)CC1)N1CCN(c2ccccc2)CC1,,inactive: -3.24%
CC(=O)Nc1nc(-c2ccc(Br)s2)cs1,,inactive: 0%
c1ccc(CNc2ncnc3ccccc23)cc1,"inconclusive: 25.9 µM [inhibitor, single point] and inconclusive: 2.59 µM [inhibitor, full curve]",
O=C(Nc1cccc(Cl)c1)N(Cc1nc2ccccc2c(=O)[nH]1)Cc1cccs1,"inconclusive: 23.1 µM [inhibitor, partial curve]",
CC(O)[C@@H](C(=O)N1CCNCC1)n1cc(CCCCN)nn1 (stereo not given in full),,inactive: 12.2%
COc1ccc(C2CC(=O)Oc3cc(C)cc(C)c32)cc1 (stereo not given),,inactive: -10.4%

SMILES,Potency,"activity change, negative = inhibition"
Cn1ccnc1C(=O)c1ccc(N)cc1,"inconclusive: 25.9 µM [activator, partial curve, poor fit]",
N=c1n(Cc2ccccc2)c2ccccc2n1CC(O)COc1ccccc1 (stereo not given),"inconclusive: 29.1 µM [inhibitor, single point]",
O=C1NC[C@@H](Cc2ccc(O)cc2)N(CCc2cccc3ccccc23)C1=O,"inconclusive: 23.1 µM [inhibitor, single point]",
COc1ccc(NC(=O)CN2C(=O)NC3(CCCC3)C2=O)cc1OC,,inactive: 3.07%
CCOc1ccccc1NC(=O)C1CCN(C(=O)c2cccs2)CC1,,inactive: -2.47%
Nc1ccc(-c2nc3ccc([N+](=O)[O-])cc3[nH]2)cc1,"inconclusive: 2.06 µM [activator, full curve]",
COc1ccc(C(=O)COc2cccc(NC(=O)c3ccco3)c2)cc1,"inconclusive: 16.4 µM [inhibitor, partial curve, poor fit]",
CSc1cccc(NC(=S)N(CCN(C)C)C(C)c2ccccn2)c1 (stereo not given),"inconclusive: 16.4 µM [inhibitor, partial curve, poor fit]",
OCCN1CCN(CC(O)COCCOc2ccc(Br)cc2)CC1 (stereo not given),,inactive: 24.4%
C/[N+]([O-])=C/c1c(OCc2ccccc2)ccc2ccccc12,"inconclusive: 23.1 µM [activator, partial curve, poor fit]",
CCOC(=O)c1[nH]c(C)c(C(=O)N2CCN(c3ccccc3)CC2)c1C,,inactive: 3.03%
COc1cc(NC(=O)c2ccco2)c(OC)cc1NC(=O)Nc1cccc(Cl)c1,"inconclusive: 29.1 µM [inhibitor, single point]",
C#CCOCCOCCOCCNc1nc(N2CCN(C(=O)CCCCCCCCCCNC(=O)[C@H](CCCCN)n3cc(C)nn3)CC2)nc(N2CCN(C(=O)CCCCCCCCCCNC(=O)[C@H](CCCN=C(N)N)n3cc(C[C@@H](C)CC)nn3)CC2)n1,"inconclusive: 35.5 µM [inhibitor, single point]",
COCCNC(=S)Nc1ccc2nc(N3CCOCC3)cc(C)c2c1,,inactive: 1.74%
CCOc1ccc(S(=O)(=O)N2CCCC(C(=O)Nc3ccccc3)C2)cc1 (stereo not given),"inconclusive: 29.1 µM [inhibitor, partial curve, poor fit]",
N#Cc1c2c(nc(N)c1-c1ccccc1)CCCCC2,"inconclusive: 32.6 µM [activator, partial curve, poor fit]",
Cc1cccc2sc(NC(=O)Cn3cccc3)nc12,"inconclusive: 13 µM [inhibitor, partial curve, poor fit]",
O=C(NN1CCN(Cc2ccccc2Cl)CC1)c1ccc(Cl)cc1,"inconclusive: 8.2 µM [inhibitor, partial curve, poor fit]",
COc1ccc(NC(=O)CN(C)C(=O)Cn2cnc3c2c(=O)n(C)c(=O)n3C)cc1,,inactive: 0.554%
COc1ccc(CN2CCC(Cc3ccccc3)CC2)c(C)c1C,,inactive: -18.7%
CC(C)Oc1ccc(CNC(=S)Nc2ccccc2)cc1Cl,"inconclusive: 8.91 µM [inhibitor, partial curve]",
CC(C)C(=O)Nc1nnc(-c2ccco2)s1,"inconclusive: 18.3 µM [activator, single point]",
